# Assay results as given in the supplement of paper PMC6411743.
# ± gives the standard deviation of the averaged measurements. This is one part of the list.
# What was measured:
# Assay in all cases: NP40-soluble protein abundance relative to vehicle (solubility fold change) (ratio); higher = more soluble protein in presence of GTP
# [1] = biological target: T1, UniProt Q99808 and related entries
# T1 sequence (whole entry): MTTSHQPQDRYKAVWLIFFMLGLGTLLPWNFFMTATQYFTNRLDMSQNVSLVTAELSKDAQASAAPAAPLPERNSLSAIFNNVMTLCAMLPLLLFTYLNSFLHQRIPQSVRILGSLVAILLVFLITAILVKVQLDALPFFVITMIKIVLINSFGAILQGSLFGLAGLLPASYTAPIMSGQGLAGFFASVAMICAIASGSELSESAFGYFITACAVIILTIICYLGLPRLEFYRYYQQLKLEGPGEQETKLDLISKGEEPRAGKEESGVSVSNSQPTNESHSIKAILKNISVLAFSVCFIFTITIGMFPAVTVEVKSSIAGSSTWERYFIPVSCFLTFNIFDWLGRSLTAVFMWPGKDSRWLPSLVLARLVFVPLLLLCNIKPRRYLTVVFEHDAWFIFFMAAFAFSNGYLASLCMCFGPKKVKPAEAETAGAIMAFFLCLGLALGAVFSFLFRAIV
# Method in brief: (§1)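 Jurkat crude lysate (Dounce-homogenised) was treated with eight concentrations from 0.1 to 10 mM for 10 min at room temperature, then 3 min at 37 °C. It was solubilised with 0.8% NP40 and benzonase (60 min, 4 °C) and ultracentrifuged, and the supernatant was TMT-labelled for LC-MS/MS. Intensities were vsn-normalised, and the value is the fold change against the NP40-processed vehicle per replicate, from three independent experiments.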
# UniProt Q9BRT3 = biological target: T2, UniProt Q9BRT3
# T2 sequence (whole entry): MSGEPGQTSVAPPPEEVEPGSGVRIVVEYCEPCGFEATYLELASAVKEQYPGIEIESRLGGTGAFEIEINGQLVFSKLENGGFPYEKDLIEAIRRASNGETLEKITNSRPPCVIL
# Method in brief: as §1
# [2] = biological target: T3, UniProt Q9BTC8 and related entries
# T3 sequence (whole entry): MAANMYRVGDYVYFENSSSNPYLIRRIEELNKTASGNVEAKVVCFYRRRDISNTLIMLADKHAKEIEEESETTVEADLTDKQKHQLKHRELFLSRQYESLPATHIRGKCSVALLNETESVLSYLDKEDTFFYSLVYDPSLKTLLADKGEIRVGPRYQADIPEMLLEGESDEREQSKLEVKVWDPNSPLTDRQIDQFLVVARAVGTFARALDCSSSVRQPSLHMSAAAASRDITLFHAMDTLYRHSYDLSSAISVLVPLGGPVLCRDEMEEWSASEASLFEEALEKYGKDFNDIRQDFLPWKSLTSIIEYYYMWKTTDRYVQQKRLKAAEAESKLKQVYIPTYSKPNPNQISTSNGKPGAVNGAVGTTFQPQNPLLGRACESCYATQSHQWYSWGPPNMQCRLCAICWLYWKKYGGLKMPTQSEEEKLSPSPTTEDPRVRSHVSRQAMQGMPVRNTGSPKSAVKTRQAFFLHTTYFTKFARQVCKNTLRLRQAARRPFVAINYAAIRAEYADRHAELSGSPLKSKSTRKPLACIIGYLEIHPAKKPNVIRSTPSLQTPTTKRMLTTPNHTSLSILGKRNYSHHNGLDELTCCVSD
# Method in brief: as §1
# [3] = biological target: T4, UniProt Q9BUJ2 and related entries
# T4 sequence (whole entry): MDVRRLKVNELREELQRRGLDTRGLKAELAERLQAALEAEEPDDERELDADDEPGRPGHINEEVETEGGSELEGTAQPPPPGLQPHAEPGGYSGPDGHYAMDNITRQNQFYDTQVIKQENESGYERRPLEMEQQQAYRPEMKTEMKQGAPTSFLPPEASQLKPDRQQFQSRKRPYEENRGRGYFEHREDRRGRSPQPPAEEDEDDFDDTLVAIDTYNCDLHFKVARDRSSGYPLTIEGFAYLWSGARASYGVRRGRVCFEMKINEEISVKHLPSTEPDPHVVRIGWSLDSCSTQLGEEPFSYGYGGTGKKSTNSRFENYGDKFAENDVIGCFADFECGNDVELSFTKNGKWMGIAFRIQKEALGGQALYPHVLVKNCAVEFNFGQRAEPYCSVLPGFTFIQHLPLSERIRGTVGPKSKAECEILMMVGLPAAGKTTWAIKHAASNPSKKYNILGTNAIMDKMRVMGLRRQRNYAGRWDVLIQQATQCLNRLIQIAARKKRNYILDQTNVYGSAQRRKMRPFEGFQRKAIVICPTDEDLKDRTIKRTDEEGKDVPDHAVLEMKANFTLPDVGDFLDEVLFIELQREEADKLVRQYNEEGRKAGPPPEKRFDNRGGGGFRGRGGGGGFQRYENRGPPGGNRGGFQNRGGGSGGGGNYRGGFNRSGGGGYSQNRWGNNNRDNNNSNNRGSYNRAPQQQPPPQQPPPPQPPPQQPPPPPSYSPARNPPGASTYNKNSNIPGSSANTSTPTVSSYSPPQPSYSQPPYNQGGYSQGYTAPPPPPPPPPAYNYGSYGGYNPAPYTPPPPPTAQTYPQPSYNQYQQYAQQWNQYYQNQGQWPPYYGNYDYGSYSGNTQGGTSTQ
# Method in brief: as §1
# [4] = biological target: T5, UniProt Q9BY77 and related entries
# T5 sequence (whole entry): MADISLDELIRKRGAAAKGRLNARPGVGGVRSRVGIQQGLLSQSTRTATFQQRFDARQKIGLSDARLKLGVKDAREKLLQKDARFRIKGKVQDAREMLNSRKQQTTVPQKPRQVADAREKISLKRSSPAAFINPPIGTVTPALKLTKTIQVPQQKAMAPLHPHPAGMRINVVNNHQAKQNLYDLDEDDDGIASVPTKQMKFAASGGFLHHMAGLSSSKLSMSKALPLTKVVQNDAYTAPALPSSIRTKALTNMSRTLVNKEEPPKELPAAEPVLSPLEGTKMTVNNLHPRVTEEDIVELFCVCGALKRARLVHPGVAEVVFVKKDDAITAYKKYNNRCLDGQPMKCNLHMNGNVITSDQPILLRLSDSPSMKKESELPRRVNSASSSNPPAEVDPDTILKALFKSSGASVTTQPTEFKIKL
# Method in brief: as §1
# [5] = biological target: T6, UniProt Q9BYJ9 and related entries
# T6 sequence (whole entry): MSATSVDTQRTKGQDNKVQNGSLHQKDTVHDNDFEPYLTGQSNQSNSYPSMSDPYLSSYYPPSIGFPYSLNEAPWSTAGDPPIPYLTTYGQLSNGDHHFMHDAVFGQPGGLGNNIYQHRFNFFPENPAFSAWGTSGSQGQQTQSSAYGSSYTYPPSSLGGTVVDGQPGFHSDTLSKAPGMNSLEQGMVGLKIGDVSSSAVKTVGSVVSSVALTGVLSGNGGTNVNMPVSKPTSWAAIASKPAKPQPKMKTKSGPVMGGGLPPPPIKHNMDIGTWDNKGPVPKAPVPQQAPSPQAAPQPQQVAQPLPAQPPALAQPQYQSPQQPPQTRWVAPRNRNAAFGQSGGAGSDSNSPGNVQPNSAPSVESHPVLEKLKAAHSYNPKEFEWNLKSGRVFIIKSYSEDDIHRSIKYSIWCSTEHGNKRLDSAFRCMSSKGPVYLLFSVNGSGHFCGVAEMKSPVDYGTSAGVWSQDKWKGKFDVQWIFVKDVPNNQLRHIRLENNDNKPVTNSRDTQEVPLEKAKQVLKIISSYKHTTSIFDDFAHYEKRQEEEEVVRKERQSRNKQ
# Method in brief: as §1
# VRK1 = biological target: T7, VRK1 (UniProt Q99986)
# T7 sequence (whole entry): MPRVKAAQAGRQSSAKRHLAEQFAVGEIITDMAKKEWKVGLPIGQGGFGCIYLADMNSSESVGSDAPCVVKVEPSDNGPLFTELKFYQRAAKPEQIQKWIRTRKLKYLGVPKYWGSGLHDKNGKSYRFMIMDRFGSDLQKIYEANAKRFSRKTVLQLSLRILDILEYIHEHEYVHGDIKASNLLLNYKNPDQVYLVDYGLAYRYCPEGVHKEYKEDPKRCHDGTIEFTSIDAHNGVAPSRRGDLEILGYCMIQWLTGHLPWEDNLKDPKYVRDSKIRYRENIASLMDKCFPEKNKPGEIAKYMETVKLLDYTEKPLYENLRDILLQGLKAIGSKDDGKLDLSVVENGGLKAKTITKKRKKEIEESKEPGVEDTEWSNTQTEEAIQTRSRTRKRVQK
# Method in brief: as §1
smiles,measurement,setting,value
Nc1nc2c(ncn2[C@@H]2O[C@H](COP(=O)(O)OP(=O)(O)OP(=O)(O)O)[C@@H](O)[C@H]2O)c(=O)[nH]1 [guanosine triphosphate],NP40-soluble protein abundance,[1]; concentration: 4mM,0.773 ± 0.035
same,NP40-soluble protein abundance,[1]; concentration: 6mM,0.857 ± 0.042
same,NP40-soluble protein abundance,[1]; concentration: 8mM,0.77 ± 0.085
same,NP40-soluble protein abundance,[1]; concentration: 10mM,0.812 ± 0.042
same,NP40-soluble protein abundance,UniProt Q9BRT3; concentration: 0.1mM,0.965 ± 0.026
same,NP40-soluble protein abundance,UniProt Q9BRT3; concentration: 0.5mM,0.918 ± 0.075
same,NP40-soluble protein abundance,UniProt Q9BRT3; concentration: 1mM,0.931 ± 0.064
same,NP40-soluble protein abundance,UniProt Q9BRT3; concentration: 2mM,0.857 ± 0.079
same,NP40-soluble protein abundance,UniProt Q9BRT3; concentration: 4mM,0.849 ± 0.085
same,NP40-soluble protein abundance,UniProt Q9BRT3; concentration: 6mM,0.836 ± 0.1
same,NP40-soluble protein abundance,UniProt Q9BRT3; concentration: 8mM,0.836 ± 0.09
same,NP40-soluble protein abundance,UniProt Q9BRT3; concentration: 10mM,0.838 ± 0.079
same,NP40-soluble protein abundance,[2]; concentration: 0.1mM,1.03 ± 0.086
same,NP40-soluble protein abundance,[2]; concentration: 0.5mM,1.07 ± 0.15
same,NP40-soluble protein abundance,[2]; concentration: 1mM,1.11 ± 0.1
same,NP40-soluble protein abundance,[2]; concentration: 2mM,1.11 ± 0.18
same,NP40-soluble protein abundance,[2]; concentration: 4mM,1.11 ± 0.088
same,NP40-soluble protein abundance,[2]; concentration: 6mM,1.11 ± 0.1
same,NP40-soluble protein abundance,[2]; concentration: 8mM,1.14 ± 0.089
same,NP40-soluble protein abundance,[2]; concentration: 10mM,1.1 ± 0.081
same,NP40-soluble protein abundance,[3]; concentration: 0.1mM,1.01 ± 0.037
same,NP40-soluble protein abundance,[3]; concentration: 0.5mM,1.04 ± 0.028
same,NP40-soluble protein abundance,[3]; concentration: 1mM,1.01 ± 0.017
same,NP40-soluble protein abundance,[3]; concentration: 2mM,0.994 ± 0.024
same,NP40-soluble protein abundance,[3]; concentration: 4mM,0.9791 ± 0.0093
same,NP40-soluble protein abundance,[3]; concentration: 6mM,0.9661 ± 0.0057
same,NP40-soluble protein abundance,[3]; concentration: 8mM,0.999 ± 0.03
same,NP40-soluble protein abundance,[3]; concentration: 10mM,0.939 ± 0.023
same,NP40-soluble protein abundance,[4]; concentration: 0.1mM,0.928 ± 0.038
same,NP40-soluble protein abundance,[4]; concentration: 0.5mM,0.907 ± 0.035
same,NP40-soluble protein abundance,[4]; concentration: 1mM,1 ± 0.044
same,NP40-soluble protein abundance,[4]; concentration: 2mM,1.05 ± 0.045
same,NP40-soluble protein abundance,[4]; concentration: 4mM,1.15 ± 0.024
same,NP40-soluble protein abundance,[4]; concentration: 6mM,1.28 ± 0.036
same,NP40-soluble protein abundance,[4]; concentration: 8mM,1.36 ± 0.039
same,NP40-soluble protein abundance,[4]; concentration: 10mM,1.54 ± 0.075
same,NP40-soluble protein abundance,[5]; concentration: 0.1mM,0.938 ± 0.075
same,NP40-soluble protein abundance,[5]; concentration: 0.5mM,0.959 ± 0.062
same,NP40-soluble protein abundance,[5]; concentration: 1mM,0.964 ± 0.086
same,NP40-soluble protein abundance,[5]; concentration: 2mM,0.934 ± 0.088
same,NP40-soluble protein abundance,[5]; concentration: 4mM,0.946 ± 0.075
same,NP40-soluble protein abundance,[5]; concentration: 6mM,0.944 ± 0.052
same,NP40-soluble protein abundance,[5]; concentration: 8mM,0.972 ± 0.086
same,NP40-soluble protein abundance,[5]; concentration: 10mM,0.971 ± 0.092
same,NP40-soluble protein abundance,VRK1; concentration: 0.1mM,1.11 ± 0.042
same,NP40-soluble protein abundance,VRK1; concentration: 0.5mM,1.24 ± 0.052
same,NP40-soluble protein abundance,VRK1; concentration: 1mM,1.21 ± 0.029
same,NP40-soluble protein abundance,VRK1; concentration: 2mM,1.31 ± 0.085
same,NP40-soluble protein abundance,VRK1; concentration: 4mM,1.34 ± 0.078
same,NP40-soluble protein abundance,VRK1; concentration: 6mM,1.38 ± 0.093
same,NP40-soluble protein abundance,VRK1; concentration: 8mM,1.33 ± 0.093
same,NP40-soluble protein abundance,VRK1; concentration: 10mM,1.3 ± 0.024

# Rewritten tab-delimited: entries from further up
smiles	measurement	setting	value
Nc1nc2c(ncn2[C@@H]2O[C@H](COP(=O)(O)OP(=O)(O)OP(=O)(O)O)[C@@H](O)[C@H]2O)c(=O)[nH]1 [guanosine triphosphate]	NP40-soluble protein abundance	UniProt Q9BRT3; concentration: 6mM	0.836 ± 0.1
same	NP40-soluble protein abundance	UniProt Q9BRT3; concentration: 8mM	0.836 ± 0.09
